Experimental findings from paper PMC4705532 are described below.

The subject of the series is elastase. Description: resonance light scattering. Conditions: 2.0 uM methyl violet, 100-fold excess; 10 mM Tris pH 7.4, 2.0 uM methyl violet (duplex sensor), target binding 20 min at 37 °C; salt not stated; commercial protein.

The exact form of at least one protein or probe is not confirmed. Negatives hold for the conditions tested.

Take “ATCTACGAATTCATCAGGGCTAAAGAGTGCAGAGTTACTTAGACCTTCCTCCGCAATACTCCCCCAGGTT (double strand) [Lapt≈Aapt duplex (with methyl violet)]”: the binding result is on record as “no binding”.
